Assay results taken from patent publication US11434267B2, “Peptides having reduced toxicity that stimulate cholesterol efflux” (The Regents of the University of California, priority 2013, dated 2022).
“Also recorded” adds a separate entry of the source. Part of at least one peptide drawing is inferred or uncertain, most often the ends. Non-standard residues stand in square brackets, D forms with d. Residues, ends and D or L forms follow the SMILES beside them. Cit = NC(=O)NCCC[C@H](N)C(=O)O

The chains behind the UniProt entries cited, without tags or fusion partners. Where a name states a change or a piece, a line headed by the entry shows the natural chain unless it says otherwise.
UniProt O95477, whole entry: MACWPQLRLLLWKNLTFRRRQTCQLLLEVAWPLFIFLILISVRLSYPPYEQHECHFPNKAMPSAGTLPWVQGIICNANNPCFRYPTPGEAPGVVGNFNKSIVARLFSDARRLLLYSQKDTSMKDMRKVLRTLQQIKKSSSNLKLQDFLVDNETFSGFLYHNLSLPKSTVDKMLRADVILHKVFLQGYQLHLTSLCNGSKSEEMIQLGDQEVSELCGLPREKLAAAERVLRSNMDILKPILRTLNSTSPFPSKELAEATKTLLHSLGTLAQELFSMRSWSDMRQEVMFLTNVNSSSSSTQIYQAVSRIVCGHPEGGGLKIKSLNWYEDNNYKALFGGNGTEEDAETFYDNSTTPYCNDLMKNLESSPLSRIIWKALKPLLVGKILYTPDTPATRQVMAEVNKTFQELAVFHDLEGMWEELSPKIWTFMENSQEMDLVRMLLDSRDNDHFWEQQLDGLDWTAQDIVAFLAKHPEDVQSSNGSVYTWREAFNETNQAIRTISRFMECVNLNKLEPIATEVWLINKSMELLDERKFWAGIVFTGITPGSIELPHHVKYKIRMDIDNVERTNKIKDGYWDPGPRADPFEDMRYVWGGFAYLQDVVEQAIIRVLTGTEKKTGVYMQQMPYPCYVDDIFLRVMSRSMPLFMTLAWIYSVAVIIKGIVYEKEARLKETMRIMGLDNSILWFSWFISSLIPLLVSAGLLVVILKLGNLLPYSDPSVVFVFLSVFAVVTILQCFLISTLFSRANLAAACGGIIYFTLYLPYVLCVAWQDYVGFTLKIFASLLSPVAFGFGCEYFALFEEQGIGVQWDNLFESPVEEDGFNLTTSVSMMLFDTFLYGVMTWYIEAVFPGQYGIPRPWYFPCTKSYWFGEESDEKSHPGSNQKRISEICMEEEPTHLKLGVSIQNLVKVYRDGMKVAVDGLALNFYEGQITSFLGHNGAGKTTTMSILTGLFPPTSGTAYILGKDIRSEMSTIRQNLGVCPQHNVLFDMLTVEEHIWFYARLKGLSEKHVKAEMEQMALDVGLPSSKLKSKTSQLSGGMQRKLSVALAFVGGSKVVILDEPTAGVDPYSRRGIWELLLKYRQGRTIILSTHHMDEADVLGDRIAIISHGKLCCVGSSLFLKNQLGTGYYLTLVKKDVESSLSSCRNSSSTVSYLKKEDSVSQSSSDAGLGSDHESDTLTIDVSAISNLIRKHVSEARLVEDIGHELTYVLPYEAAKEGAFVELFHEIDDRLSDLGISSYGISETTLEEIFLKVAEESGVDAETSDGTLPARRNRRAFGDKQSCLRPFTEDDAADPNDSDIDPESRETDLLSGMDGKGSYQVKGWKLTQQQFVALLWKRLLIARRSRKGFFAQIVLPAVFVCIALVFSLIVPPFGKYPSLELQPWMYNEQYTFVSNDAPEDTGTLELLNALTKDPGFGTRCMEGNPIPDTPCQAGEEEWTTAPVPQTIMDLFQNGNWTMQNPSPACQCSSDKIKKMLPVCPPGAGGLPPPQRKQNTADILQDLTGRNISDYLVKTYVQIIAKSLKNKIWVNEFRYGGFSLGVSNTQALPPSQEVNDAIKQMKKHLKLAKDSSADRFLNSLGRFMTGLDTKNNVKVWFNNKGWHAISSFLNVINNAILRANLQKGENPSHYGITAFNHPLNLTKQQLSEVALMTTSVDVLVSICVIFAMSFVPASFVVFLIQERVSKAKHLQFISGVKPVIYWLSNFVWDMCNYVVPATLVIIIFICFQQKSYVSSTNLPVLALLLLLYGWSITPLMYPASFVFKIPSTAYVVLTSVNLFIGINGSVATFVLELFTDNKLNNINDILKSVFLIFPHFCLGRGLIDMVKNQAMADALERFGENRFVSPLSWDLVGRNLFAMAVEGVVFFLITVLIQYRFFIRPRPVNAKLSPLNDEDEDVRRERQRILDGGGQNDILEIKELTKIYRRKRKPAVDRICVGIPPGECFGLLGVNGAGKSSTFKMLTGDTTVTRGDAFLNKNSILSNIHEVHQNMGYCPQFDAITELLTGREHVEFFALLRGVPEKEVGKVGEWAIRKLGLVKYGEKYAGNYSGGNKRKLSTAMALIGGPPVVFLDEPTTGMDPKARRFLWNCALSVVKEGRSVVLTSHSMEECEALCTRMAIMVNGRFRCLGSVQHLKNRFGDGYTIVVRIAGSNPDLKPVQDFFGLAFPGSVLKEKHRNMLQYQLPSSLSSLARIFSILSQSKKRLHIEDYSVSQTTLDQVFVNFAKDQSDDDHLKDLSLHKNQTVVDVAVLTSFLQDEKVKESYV
UniProt P41233: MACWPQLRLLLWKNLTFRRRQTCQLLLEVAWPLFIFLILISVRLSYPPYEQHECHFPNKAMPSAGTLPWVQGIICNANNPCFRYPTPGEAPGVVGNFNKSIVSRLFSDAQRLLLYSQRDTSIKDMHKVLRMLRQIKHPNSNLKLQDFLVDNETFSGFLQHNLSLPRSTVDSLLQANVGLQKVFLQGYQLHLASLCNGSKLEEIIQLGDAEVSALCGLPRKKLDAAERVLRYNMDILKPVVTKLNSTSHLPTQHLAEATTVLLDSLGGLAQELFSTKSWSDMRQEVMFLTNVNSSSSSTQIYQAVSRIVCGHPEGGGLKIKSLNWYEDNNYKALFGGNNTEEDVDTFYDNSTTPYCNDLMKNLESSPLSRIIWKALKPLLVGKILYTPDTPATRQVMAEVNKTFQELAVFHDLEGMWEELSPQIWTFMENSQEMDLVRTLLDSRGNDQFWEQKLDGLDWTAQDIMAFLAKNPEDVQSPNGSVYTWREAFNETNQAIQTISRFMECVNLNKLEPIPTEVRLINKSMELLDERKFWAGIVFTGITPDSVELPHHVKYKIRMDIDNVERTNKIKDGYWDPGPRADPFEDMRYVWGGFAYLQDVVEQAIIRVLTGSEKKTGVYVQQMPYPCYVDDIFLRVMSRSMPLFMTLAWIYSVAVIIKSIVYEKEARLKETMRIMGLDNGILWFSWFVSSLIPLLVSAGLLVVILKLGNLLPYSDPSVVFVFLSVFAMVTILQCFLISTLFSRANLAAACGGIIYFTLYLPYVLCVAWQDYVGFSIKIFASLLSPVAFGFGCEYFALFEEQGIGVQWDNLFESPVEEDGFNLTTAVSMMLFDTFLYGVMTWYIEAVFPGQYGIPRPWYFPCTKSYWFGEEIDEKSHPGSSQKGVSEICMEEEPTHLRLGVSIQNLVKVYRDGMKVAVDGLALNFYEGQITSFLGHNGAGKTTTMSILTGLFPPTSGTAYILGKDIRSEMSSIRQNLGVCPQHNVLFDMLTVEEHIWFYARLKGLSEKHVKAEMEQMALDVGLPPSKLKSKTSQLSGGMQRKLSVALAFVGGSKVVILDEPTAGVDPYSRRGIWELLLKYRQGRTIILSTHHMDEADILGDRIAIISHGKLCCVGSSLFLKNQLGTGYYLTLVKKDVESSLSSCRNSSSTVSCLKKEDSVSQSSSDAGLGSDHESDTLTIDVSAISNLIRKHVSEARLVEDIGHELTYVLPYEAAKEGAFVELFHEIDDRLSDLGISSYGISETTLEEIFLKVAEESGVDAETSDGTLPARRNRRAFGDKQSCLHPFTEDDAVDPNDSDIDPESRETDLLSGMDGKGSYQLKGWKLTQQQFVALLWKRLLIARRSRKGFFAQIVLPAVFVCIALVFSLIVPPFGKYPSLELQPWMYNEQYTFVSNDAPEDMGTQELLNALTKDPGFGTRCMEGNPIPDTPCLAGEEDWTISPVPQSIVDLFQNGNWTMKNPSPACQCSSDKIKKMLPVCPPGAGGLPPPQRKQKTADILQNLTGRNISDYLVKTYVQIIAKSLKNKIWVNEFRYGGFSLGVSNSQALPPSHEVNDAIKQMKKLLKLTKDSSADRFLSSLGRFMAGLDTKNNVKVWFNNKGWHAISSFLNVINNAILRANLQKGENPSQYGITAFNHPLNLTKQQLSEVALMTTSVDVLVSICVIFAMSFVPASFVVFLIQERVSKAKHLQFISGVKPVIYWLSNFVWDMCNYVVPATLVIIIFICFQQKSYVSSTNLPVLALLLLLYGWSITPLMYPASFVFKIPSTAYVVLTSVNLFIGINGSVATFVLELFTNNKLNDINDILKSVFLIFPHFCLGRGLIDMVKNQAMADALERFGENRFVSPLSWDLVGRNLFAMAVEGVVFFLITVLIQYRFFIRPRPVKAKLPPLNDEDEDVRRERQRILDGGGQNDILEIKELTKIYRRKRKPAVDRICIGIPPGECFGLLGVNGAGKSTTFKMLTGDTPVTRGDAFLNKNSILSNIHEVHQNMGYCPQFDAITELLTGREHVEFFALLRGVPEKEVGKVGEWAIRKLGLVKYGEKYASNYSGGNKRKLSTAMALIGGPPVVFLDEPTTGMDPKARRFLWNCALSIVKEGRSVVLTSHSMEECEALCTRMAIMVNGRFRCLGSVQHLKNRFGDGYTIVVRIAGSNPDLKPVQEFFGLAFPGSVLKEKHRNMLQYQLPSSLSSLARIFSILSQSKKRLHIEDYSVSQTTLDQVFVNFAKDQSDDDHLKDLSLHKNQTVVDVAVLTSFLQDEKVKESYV

Tests used:
ABCA1 [1] = biological target: T1, ABCA1 (Homo sapiens, UniProt O95477); experiment: BHK cells stably transfected with ABCA1: crosslinking, cholesterol efflux, nascent HDL assembly; assay type: cell-based
T1 construct: expressed in transfected cells; host or cells: BHK cells, stably transfected

SR-B1 = biological target: T2, SR-B1 (Rattus norvegicus, UniProt P97943); experiment: SR-B1 mediated cholesterol efflux from Fu5AH cells; assay type: cell-based; details: 50 μg peptide/ml, time-course and 4 h
T2 construct: Fu5AH cells, that express primarily SR-B1 for mediating cellular lipid efflux; endogenous in cells; host or cells: Fu5AH cells
T2 sequence (P97943 1-509): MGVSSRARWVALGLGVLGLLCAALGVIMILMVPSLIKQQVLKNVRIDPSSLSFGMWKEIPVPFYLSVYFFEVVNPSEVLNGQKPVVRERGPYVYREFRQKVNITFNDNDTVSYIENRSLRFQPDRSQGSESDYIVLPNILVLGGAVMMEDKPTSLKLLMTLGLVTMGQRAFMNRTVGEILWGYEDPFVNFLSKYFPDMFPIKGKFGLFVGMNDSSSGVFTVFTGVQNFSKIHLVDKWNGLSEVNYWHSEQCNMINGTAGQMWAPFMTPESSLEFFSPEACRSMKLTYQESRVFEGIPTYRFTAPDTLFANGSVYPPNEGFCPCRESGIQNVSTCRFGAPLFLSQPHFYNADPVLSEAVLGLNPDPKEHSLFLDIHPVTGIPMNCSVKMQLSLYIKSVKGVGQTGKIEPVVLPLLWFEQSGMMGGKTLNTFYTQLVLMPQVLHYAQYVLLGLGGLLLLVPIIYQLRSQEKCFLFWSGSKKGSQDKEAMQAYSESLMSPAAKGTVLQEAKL

ABCG1 = biological target: T3, ABCG1 (Homo sapiens, UniProt P45844); experiment: ABCG1 mediated cholesterol efflux from BHK cells stably transfected with ABCG1; assay type: cell-based; details: BHK-ABCG1 vs mock, 50 μg peptide/ml, time-course and 4 h
T3 construct: expressed in transfected cells; host or cells: BHK cells, stably transfected
From the text: To further evaluate potential anti-atherogenic mechanisms of CS6253, BHK cells stably transfected with ABCG1 and mock-transfected control cells were labeled with [3H]cholesterol and used in efflux experiments. […] Panel A—Time-course for ABCG1 mediated cholesterol efflux from cells to lipid-free CS6253 peptide or CS6253:POPC complexes. […] Panel B—Comparison between CS6253 and ATI-5261 in mediating cellular cholesterol efflux via ABCG1. [3H]cholesterol labeled BHK cells (ABCG1 vs. mock transfected; left bars, control BHK, right bars, G1-BHK) were incubated with either lipid-free peptide or peptides formulated with POPC.

Gold Syrian hamsters = experiment: preβ HDL formation and LDL lowering in vivo in hamsters; parameters: species or system hamster
[2] = tested on: apoE deficient (apoE−/−) mice; experiment: Macrophage reverse cholesterol transport (RCT) to feces in vivo; parameters: species or system mouse; details: 10 or 30 mg/kg IP, feces at 24 h
apoE−/− mice = experiment: Atherosclerosis in apoE−/− mice on high-fat western diet (whole aorta, Oil-Red O); assay type: in vivo, mouse
C57Bl/6 mice = experiment: Glucose tolerance test in fasted C57Bl/6 mice after single IP peptide injection; assay type: in vivo, mouse; details: single IP 300 mg/kg, 2 g/kg glucose IP
Experimental: Peptide may additionally be screened for the ability to lower glucose using methods illustrated in the EXAMPLES section, e.g., Example 31. For example, the ability to lower glucose can be evaluated using ing animal models, such as mice or rats. Mice, e.g., C57Bl/6 mice, fed a normal lab chow diet are injected IP with a peptide that is undergoing evaluation, e.g., at a does of 300 mg/kg, and the glucose levels in the blood are measured at a time period, e.g. 6 hours, following injection and compared to the levels of blood glucose in a control animal that received PBS. Alternatively, peptides may be screened for the ability to lower glucose as illustrated in Example 36. […] Peptides may also be evaluated for glucose-lowering activity in animal models of obesity, e.g., DIO mice. Further, peptides may be evaluated for the ability to improve sensitivity to insulin, e.g., as described in Example 31 of the EXAMPLES section.
This example illustrates that CS6253 and T6991-2 lower blood glucose concentrations upon glucose challenge in C57Bl/6 mice (FIG. 51). […] Blood was collected from the tail vein at the indicated times and blood glucose measured using a glucometer. Panels A and B— Blood glucose concentrations expressed as mass values over time following glucose challenge, with corresponding area under the curve, respectively. […]

ABCA1 [3] = biological target: T4, ABCA1 (Mus musculus, UniProt P41233); experiment: ABCA1-dependent cholesterol efflux from [3H]cholesterol-labeled J774 macrophages with and without cAMP; assay type: cell-based; details: J774, cAMP vs no cAMP; 10 μg/ml lipid-free
T4 construct: treated (18 h) with a cAMP analog to induce ABCA1 protein expression; endogenous in cells; host or cells: J774 macrophages

CC(C)C[C@H](NC(=O)[C@H](C)NC(=O)[C@H](C)NC(=O)[C@H](CC(C)C)NC(=O)[C@H](Cc1c[nH]c2ccccc12)NC(=O)[C@H](CCC(=O)O)NC(=O)[C@H](CCC(=O)O)NC(=O)[C@H](CC(C)C)NC(=O)[C@H](CCCCN)NC(=O)[C@H](CO)NC(=O)[C@H](CCCNC(N)=O)NC(=O)[C@@H](NC(=O)[C@@H](N)CCC(=O)O)C(C)C)C(=O)N[C@@H](CCCNC(N)=O)C(=O)N[C@@H](CCC(=O)O)C(=O)N[C@@H](CC(C)C)C(=O)N[C@@H](C)C(=O)N[C@@H](CCC(=O)O)C(=O)N[C@@H](CCC(=O)O)C(=O)N[C@@H](CC(C)C)C(=O)N[C@@H](CC(C)C)C(=O)N[C@@H](C)C(=O)N[C@@H](CCCNC(=N)N)C(=O)N[C@@H](CC(C)C)C(=O)N[C@@H](CCCCN)C(=O)N[C@@H](CO)C(=O)O [CS6253] (H-EV[Cit]SKLEEWLAAL[Cit]ELAEELLARLKS-OH)
cholesterol efflux via ABCA1 (ABCA1 [1]; BHK-ABCA1 vs mock): stimulated cholesterol efflux via ABCA1 with high potency
interaction with native ABCA1 oligomeric forms (ABCA1 [1]; crosslinking assay and western blot): interacted with native forms of ABCA1 in cellular membranes
assembly of nascent HDL particles (ABCA1 [1]; native PAGE): support the assembly/structure of nascent HDL particles
cholesterol efflux via SR-B1 (SR-B1): poor activity
cholesterol efflux via ABCG1 (ABCG1): poor activity
increase in preβ1 HDL vs. control (Gold Syrian hamsters; 30 mg/kg SC, high-fat fed hamsters, 1, 2, 4 h): ~8 fold
LDL particles (ion mobility) (Gold Syrian hamsters; 10, 30 and 100 mg/kg SC, plasma 4 h): LDL lowering
macrophage reverse cholesterol transport: fecal [3H]sterol [2]: stimulated macrophage reverse cholesterol transport (RCT) to feces in vivo
extent of whole aorta covered with fatty lesions (apoE−/− mice; 10 mg/kg IP at 48 hour intervals for 10 weeks): reduced substantial atherosclerosis
extent of whole aorta covered with fatty lesions (apoE−/− mice; 30 mg/kg IP at 48 hour intervals for 6 weeks): reduced substantial atherosclerosis
extent of whole aorta covered with fatty lesions (apoE−/− mice; 30 or 60 mg/kg SC on alternate days for 6 weeks): reduced substantial atherosclerosis
blood glucose upon glucose challenge (C57Bl/6 mice): lowered blood glucose concentrations upon glucose challenge
ABCA1-dependent cholesterol efflux activity (ABCA1 [3]): functional, mediating high-levels of cholesterol efflux in an ABCA1-dependent manner; also recorded: stimulated ABCA1 dependent cholesterol efflux similar to native apolipoproteins
